Test results as given in the supplement of paper PMC10849652.
The other results are listed elsewhere or left out.

Sequences of proteins named here, by UniProt entry; tags and fusion partners are left off. A change or cut given only in a name is not applied to a line headed by its entry.
UniProt A2RU67: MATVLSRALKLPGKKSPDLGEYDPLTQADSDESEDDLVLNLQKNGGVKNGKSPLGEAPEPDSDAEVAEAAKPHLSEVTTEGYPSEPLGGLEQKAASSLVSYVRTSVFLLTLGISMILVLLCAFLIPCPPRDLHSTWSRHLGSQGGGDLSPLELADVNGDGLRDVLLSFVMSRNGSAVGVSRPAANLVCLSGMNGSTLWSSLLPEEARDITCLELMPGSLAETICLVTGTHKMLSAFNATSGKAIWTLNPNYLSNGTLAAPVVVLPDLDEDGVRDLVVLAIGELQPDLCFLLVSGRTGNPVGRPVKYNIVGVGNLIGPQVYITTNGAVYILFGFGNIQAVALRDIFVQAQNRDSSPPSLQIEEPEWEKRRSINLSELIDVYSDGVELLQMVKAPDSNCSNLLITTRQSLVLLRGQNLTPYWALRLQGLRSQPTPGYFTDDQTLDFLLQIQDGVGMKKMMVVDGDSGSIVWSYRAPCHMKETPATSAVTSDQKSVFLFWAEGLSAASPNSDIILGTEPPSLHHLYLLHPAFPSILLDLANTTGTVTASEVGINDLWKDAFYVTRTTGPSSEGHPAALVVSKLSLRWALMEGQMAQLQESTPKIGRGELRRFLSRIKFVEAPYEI
UniProt Q8N612: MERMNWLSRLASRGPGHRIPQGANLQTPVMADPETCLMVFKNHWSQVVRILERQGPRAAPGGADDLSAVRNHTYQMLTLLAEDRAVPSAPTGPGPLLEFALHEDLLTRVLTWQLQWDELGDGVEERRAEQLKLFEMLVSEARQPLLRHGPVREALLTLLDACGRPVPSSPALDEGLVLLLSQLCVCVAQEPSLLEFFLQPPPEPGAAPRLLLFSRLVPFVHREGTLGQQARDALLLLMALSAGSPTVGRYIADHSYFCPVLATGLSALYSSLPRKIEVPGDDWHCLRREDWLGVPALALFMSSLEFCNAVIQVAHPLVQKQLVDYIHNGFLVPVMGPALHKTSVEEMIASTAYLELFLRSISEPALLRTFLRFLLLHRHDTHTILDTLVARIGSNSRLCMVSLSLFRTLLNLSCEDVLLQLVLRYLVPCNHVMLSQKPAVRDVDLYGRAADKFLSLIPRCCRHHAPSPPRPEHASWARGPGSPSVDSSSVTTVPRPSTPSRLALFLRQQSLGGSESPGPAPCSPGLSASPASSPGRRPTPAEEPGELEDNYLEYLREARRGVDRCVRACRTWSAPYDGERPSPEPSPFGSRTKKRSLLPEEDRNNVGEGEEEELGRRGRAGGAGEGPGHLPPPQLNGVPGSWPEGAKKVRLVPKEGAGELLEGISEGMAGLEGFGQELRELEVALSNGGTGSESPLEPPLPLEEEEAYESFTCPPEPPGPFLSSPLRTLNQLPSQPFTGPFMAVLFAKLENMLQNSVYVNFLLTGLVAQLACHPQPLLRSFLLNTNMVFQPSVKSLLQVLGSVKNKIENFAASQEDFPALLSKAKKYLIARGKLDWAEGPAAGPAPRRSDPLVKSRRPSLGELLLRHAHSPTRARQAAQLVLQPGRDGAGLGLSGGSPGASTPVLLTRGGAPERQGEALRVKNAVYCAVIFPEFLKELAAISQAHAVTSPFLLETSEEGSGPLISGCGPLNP
UniProt Q8IXR5: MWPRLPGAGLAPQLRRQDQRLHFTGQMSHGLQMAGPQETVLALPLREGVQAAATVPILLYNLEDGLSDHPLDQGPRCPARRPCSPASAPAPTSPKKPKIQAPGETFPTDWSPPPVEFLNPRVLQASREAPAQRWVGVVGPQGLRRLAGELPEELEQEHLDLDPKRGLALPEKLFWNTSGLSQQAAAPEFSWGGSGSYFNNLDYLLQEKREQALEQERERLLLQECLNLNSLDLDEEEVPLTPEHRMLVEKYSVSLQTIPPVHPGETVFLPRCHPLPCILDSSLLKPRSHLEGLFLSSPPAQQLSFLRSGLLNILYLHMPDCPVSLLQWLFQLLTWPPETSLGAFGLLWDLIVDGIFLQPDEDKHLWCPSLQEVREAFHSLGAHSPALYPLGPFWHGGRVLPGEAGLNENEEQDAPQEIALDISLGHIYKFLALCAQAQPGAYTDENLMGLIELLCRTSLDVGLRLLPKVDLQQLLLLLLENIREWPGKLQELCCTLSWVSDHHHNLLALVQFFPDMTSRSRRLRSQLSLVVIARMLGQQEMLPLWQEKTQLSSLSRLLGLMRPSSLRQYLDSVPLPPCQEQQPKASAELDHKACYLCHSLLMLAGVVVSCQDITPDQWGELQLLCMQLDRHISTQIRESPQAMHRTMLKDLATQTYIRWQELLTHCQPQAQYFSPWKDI
UniProt B1AK53: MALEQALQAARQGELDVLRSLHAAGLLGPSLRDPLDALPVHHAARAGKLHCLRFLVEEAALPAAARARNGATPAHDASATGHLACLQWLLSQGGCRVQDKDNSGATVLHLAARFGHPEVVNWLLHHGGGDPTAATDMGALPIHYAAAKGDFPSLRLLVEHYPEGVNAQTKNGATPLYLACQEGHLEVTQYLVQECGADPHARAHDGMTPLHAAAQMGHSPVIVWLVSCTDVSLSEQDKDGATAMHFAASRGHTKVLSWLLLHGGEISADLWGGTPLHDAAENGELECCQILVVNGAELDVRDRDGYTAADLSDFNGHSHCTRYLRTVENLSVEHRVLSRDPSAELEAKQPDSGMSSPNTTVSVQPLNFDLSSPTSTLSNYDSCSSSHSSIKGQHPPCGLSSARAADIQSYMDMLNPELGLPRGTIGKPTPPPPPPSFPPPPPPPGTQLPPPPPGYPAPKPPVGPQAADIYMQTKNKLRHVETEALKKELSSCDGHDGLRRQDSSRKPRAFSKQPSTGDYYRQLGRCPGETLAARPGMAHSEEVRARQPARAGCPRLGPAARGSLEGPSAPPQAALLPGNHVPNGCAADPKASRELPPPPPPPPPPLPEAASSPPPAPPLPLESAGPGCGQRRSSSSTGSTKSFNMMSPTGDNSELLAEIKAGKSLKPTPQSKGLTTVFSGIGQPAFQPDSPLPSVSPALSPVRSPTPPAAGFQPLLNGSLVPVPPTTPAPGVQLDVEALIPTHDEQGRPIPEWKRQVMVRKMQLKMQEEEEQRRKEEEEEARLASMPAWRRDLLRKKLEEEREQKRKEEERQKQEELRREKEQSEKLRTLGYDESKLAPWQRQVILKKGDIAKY
UniProt Q96CN4: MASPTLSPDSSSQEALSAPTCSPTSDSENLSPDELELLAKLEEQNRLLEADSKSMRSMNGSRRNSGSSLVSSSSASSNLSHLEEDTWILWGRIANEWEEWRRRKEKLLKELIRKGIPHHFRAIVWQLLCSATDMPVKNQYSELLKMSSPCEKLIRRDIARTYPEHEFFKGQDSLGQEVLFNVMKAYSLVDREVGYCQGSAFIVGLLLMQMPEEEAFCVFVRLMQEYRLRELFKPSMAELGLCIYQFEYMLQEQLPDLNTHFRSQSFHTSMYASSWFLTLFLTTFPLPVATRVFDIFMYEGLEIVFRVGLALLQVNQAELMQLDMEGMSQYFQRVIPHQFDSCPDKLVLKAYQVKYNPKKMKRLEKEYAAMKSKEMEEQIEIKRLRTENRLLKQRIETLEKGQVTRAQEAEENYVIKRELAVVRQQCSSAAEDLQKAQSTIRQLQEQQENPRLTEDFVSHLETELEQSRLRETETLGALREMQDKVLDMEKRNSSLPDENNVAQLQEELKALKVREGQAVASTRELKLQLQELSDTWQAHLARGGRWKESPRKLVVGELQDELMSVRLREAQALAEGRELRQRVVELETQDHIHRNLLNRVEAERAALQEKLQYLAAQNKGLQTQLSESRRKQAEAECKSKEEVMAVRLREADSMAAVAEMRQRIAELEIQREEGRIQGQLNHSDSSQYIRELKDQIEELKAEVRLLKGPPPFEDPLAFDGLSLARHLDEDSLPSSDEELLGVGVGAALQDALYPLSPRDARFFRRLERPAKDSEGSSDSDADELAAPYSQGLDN
UniProt P50549: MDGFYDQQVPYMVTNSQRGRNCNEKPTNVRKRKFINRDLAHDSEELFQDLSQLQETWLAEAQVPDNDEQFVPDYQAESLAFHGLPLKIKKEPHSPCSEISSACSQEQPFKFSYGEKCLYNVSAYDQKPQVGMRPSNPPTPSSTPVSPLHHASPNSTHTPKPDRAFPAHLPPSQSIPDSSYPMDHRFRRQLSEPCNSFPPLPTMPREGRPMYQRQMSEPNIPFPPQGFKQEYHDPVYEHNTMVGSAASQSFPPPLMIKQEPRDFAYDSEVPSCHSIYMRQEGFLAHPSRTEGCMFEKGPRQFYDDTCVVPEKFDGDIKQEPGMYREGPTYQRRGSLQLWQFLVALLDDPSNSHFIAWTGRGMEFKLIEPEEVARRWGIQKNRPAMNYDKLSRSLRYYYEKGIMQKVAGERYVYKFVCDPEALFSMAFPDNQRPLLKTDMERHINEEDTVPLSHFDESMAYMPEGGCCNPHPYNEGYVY
UniProt P34910: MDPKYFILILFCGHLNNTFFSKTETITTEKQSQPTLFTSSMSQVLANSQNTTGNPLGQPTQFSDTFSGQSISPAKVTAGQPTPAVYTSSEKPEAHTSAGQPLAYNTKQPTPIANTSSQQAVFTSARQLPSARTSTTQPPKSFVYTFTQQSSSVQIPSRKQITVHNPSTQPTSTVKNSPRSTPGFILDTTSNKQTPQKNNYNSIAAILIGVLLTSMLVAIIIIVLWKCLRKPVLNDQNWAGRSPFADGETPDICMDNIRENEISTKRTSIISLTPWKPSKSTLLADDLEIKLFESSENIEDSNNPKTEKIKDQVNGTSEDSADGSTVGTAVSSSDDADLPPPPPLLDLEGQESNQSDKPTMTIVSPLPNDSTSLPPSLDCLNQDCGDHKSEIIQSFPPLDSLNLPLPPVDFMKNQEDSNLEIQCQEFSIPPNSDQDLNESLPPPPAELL
UniProt Q9H8W3: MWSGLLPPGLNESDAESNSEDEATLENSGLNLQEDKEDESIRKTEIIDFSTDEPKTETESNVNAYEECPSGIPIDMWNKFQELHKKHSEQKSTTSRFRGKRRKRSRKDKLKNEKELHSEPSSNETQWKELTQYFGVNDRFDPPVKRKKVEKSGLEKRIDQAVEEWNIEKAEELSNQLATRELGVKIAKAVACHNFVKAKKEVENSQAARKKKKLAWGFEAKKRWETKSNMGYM
UniProt Q9NVH0: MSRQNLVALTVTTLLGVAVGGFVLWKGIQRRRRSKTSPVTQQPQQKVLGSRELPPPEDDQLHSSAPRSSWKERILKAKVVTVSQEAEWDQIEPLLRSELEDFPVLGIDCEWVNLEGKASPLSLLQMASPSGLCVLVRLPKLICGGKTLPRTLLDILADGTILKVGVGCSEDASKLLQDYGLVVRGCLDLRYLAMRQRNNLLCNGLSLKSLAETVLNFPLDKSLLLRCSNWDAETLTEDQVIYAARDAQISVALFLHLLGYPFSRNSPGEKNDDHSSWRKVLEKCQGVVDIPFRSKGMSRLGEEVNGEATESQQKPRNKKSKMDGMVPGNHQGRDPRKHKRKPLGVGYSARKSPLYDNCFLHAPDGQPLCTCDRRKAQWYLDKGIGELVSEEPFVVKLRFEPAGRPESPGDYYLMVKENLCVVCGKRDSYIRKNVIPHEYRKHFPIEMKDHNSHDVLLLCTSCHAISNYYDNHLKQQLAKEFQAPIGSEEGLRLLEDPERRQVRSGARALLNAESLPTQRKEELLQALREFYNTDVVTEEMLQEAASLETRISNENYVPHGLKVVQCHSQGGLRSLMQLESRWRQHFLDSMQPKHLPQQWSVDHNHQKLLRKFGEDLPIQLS

Tests used:
Assay in all cases: log2 fold change, soluble protein after heating vs DMSO (PISA); higher = thermal stabilisation; K562 lysate, 10 uM; active = over 0.2 and 3.5 SD of the protein, either way, in both replicates (recomputed)
[1] = compound: NC1(c2ccc(-c3nc4ccn5c(=O)[nH]nc5c4cc3-c3ccccc3)cc2)CCC1
Method in brief: (§1)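 Following dounce homogenisation of K562 pellets in PBS pH 7.4 with 1 mM MgCl2, crude extract at 1 mg/mL protein was incubated for 30 min with 10 μM compound. Aliquots were then heated for 3 min over 48°C-58°C and pooled, NP-40 was added to 0.5% at 4°C, and soluble protein was recovered as the supernatant at 21,000xg for 90 min. Channel-sum-equalised TMTpro 16plex LC-MS/MS quantified this protein. Each value, from duplicates, is a log-two fold change in thermal stability relative to solvent controls.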

tozasertib = compound: Cc1cc(Nc2cc(N3CCN(C)CC3)nc(Sc3ccc(NC(=O)C4CC4)cc3)n2)n[nH]1 [tozasertib]
Method in brief: as §1

lapatinib = compound: CS(=O)(=O)CCNCc1ccc(-c2ccc3ncnc(Nc4ccc(OCc5cccc(F)c5)c(Cl)c4)c3c2)o1 [lapatinib]
Method in brief: as §1

[2] = compound: NC(=O)c1cnc(N[C@@H]2CCCC[C@@H]2N)nc1Nc1cccc(-n2nccn2)c1
Method in brief: as §1

pictilisib = compound: CS(=O)(=O)N1CCN(Cc2cc3nc(-c4cccc5[nH]ncc45)nc(N4CCOCC4)c3s2)CC1 [pictilisib]
Method in brief: as §1

crizotinib = compound: C[C@@H](Oc1cc(-c2cnn(C3CCNCC3)c2)cnc1N)c1c(Cl)ccc(F)c1Cl [crizotinib]
Method in brief: as §1

[3] = compound: C[C@H](C1=CC=C(C=C1)C(=O)NC2=C3C=CNC3=NC=C2)N
Method in brief: as §1

duvelisib = compound: C[C@H](Nc1ncnc2nc[nH]c12)c1cc2cccc(Cl)c2c(=O)n1-c1ccccc1 [duvelisib]
Method in brief: as §1

gandotinib = compound: Cc1cc(Nc2cc(CN3CCOCC3)c3nc(C)c(Cc4ccc(Cl)cc4F)n3n2)n[nH]1 [gandotinib]
Method in brief: as §1

doramapimod = compound: Cc1ccc(-n2nc(C(C)(C)C)cc2NC(=O)Nc2ccc(OCCN3CCOCC3)c3ccccc23)cc1 [doramapimod]
Method in brief: as §1

bafetinib = compound: Cc1ccc(NC(=O)c2ccc(CN3CC[C@H](N(C)C)C3)c(C(F)(F)F)c2)cc1Nc1nccc(-c2cncnc2)n1 [bafetinib]
Method in brief: as §1

[4] = compound: Cc1cccc(CC(=O)N2CCc3c2ccc(-c2cn(C)c4ncnc(N)c24)c3F)n1
Method in brief: as §1

nilotinib = compound: Cc1cn(-c2cc(NC(=O)c3ccc(C)c(Nc4nccc(-c5cccnc5)n4)c3)cc(C(F)(F)F)c2)cn1 [nilotinib]
Method in brief: as §1

[5] = compound: Cc1nc(Nc2n[nH]c3c2CN(C(=O)N[C@H](CN(C)C)c2ccccc2)C3(C)C)c2sccc2n1
Method in brief: as §1

dasatinib = compound: Cc1nc(Nc2ncc(C(=O)Nc3c(C)cccc3Cl)s2)cc(N2CCN(CCO)CC2)n1 [dasatinib]
Method in brief: as §1

[6] = compound: Cc1ncc(-c2ccnc(Nc3ccc(S(C)(=O)=O)cc3)n2)n1C(C)C
Method in brief: as §1

[7] = compound: Cn1cc(-c2ccc3c(c2)CCN3C(=O)Cc2cccc(C(F)(F)F)c2)c2c(N)ncnc21
Method in brief: as §1

quisinostat = compound: Cn1cc(CNCC2CCN(c3ncc(C(=O)NO)cn3)CC2)c2ccccc21 [quisinostat]
Method in brief: as §1

tipifarnib = compound: Cn1cncc1[C@@](N)(c1ccc(Cl)cc1)c1ccc2c(c1)c(-c1cccc(Cl)c1)cc(=O)n2C [tipifarnib]
Method in brief: as §1

[8] = compound: NC(=O)Nc1cc(-c2cccc(F)c2)sc1C(=O)N[C@H]1CCCNC1
Method in brief: as §1

Measured: log2 fold change

FAM171A2 (UniProt A8MVW0)
inactive: [1] -0.138

ETAA1 (UniProt Q9NY74)
inactive: tozasertib 0.034 | [1] -0.152

FAM234B (UniProt A2RU67)
inactive: lapatinib -0.032 | [2] -0.046

FAM160A2 isoform 2 (UniProt Q8N612)
inactive: pictilisib -0.114 | crizotinib -0.033 | [3] -0.152 | duvelisib 0.131 | gandotinib 0.095 | tozasertib 0.111 | doramapimod 0.038 | bafetinib -0.278 | [4] -0.07 | nilotinib -0.067 | [5] 0.01 | dasatinib 0.14 | [6] -0.135 | [7] 0.136 | quisinostat -0.031 | tipifarnib -0.156 | [8] 0.041 | [1] -0.049

FAM3A (UniProt Q9BU27)
inactive: duvelisib -0.152 | nilotinib -0.054 | [5] 0.039 | dasatinib -0.3 | [6] -0.194 | [7] 0.085 | tipifarnib 0.088

FAM174C (UniProt Q9BVV8)
inactive: lapatinib -0.142 | [3] -0.154 | gandotinib 0.286 | [4] 0.018 | nilotinib -0.349 | [5] 0.042 | [6] 0.376 | tipifarnib 0.14 | [2] -0.034 | [1] -0.276

FAM178B (UniProt Q8IXR5)
inactive: crizotinib 0.022 | tozasertib 0.053 | doramapimod -0.003 | quisinostat 0.084 | [8] -0.031

ERV3-1 (UniProt Q14264)
inactive: crizotinib 0.156 | duvelisib -0.001 | tozasertib 0.115 | doramapimod -0.041 | dasatinib -0.096 | [7] 0.203 | quisinostat 0.109 | [8] 0.056 | [1] -0.03

ERN1 (UniProt O75460)
inactive: tozasertib 0.004 | [1] -0.073

Fetched one by one from the entries so far, two records:
ERV3-1 (UniProt Q14264)
inactive: crizotinib 0.156 | duvelisib -0.001 | tozasertib 0.115 | doramapimod -0.041 | dasatinib -0.096 | [7] 0.203 | quisinostat 0.109 | [8] 0.056 | [1] -0.03

FAM3A (UniProt Q9BU27)
inactive: duvelisib -0.152 | nilotinib -0.054 | [5] 0.039 | dasatinib -0.3 | [6] -0.194 | [7] 0.085 | tipifarnib 0.088

Continuation.

ETV3 (UniProt P41162)
inactive: tozasertib -0.051

ESPN (UniProt B1AK53)
inactive: duvelisib -0.114 | tozasertib -0.1 | dasatinib 0.025 | [7] 0

FAM199X (UniProt Q6PEV8)
inactive: crizotinib -0.054 | doramapimod -0.138 | quisinostat -0.052 | [8] 0.034

EVI5L isoform 2 (UniProt Q96CN4)
inactive: [3] 0.022 | gandotinib 0.062 | [4] 0.049

EURL (UniProt Q9NYK6)
inactive: lapatinib 0.172 | [3] 0.099 | duvelisib -0.062 | gandotinib 0.035 | [4] 0.014 | dasatinib 0.043 | [7] 0.032 | [2] 0.523 | [1] -0.305

EVA1B (UniProt Q9NVM1)
inactive: crizotinib -0.023 | duvelisib 0.068 | doramapimod 0.01 | dasatinib 0.014 | [7] 0.239 | quisinostat -0.006 | [8] -0.015 | [1] -0.08

ETV1 (UniProt P50549)
inactive: duvelisib 0.012 | nilotinib -0.171 | [5] -0.365 | dasatinib -0.12 | [6] -0.181 | [7] -0.109 | tipifarnib -0.018 | [1] -0.037

EVI2B isoform 2 (UniProt P34910)
inactive: [3] 0.043 | gandotinib 0.097 | [4] -0.005

FAM204A (UniProt Q9H8W3)
inactive: crizotinib -0.053 | [3] 0.412 | gandotinib 0.045 | doramapimod 0.154 | [4] -0.077 | quisinostat -0.129 | [8] 0.069 | [1] 0.098

EXD2 (UniProt Q9NVH0)
inactive: crizotinib -0.012 | duvelisib 0.068 | doramapimod -0.11 | dasatinib -0.072 | [7] 0.046 | quisinostat 0.079 | [8] 0.065 | [1] -0.041

FAM160B2 (UniProt Q86V87)
inactive: crizotinib -0.292 | [3] -0.245 | gandotinib -0.168 | tozasertib 0.042 | doramapimod 0.079 | [4] 0.104 | nilotinib -0.063 | [5] -0.08 | [6] 0.094 | quisinostat -0.272 | tipifarnib -0.029 | [8] 0 | [1] 0.128

FAM104A isoform 2 (UniProt Q969W3)
inactive: pictilisib -0.066 | duvelisib 0.022 | bafetinib -0.047 | dasatinib -0.825 | [7] 0.57

FAM49B, A0A1W2PRQ0
inactive: pictilisib -0.101 | tozasertib -0.102 | bafetinib -0.135

FAM72C (UniProt H0Y354)
inactive: [3] 0.148 | gandotinib 0.182 | [4] 0.003

EXOC3L2, A0A1C7CYX0
inactive: crizotinib 0.05 | [3] 0.125 | duvelisib 0.11 | gandotinib -0.071 | tozasertib 0.043 | doramapimod 0.007 | [4] 0.08 | dasatinib -0.04 | [7] 0.078 | quisinostat 0.11 | [8] -0.017 | [1] -0.029
